Data taken from PubChem BioAssay AID912, deposited by NCATS (2007).

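Uptake of anthrax lethal toxin into cultured cells, read by FRET (460/530 nm ratio) and reported from the 460 nm channel; the cell line is not named here. Each compound was tested as a concentration series from about 0.0005 to 40 µM. The number is the fitted AC50 of the 460 nm signal alone; lower values mean a more potent effect. A falling signal goes with compounds filed as inhibitors or cytotoxic, a rising one with activators or fluorescent compounds (inferred from the filed classes).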

Values are in µM. Common to all entries: measured here: 460 nm channel. This is a side read-out of the assay, for part of the compounds, not drawn at random. Potencies fitted to partial, single-point or poorly fitting curves are rough. The first word of each remark tells which way the curve ran; it can be opposite to the aim of the assay.

| # | structure | AC50 (µM) | remark |
|---|---|---|---|
| 1 | `c1ccc(-c2nnc(CN3CCCc4ccccc43)o2)cc1` | 0.3162 | rising, full curve |
| 2 | `CCOc1ccccc1C(=O)NCc1ccc2c(c1)OCO2` | 31.62 | rising, single point |
| 3 | `Cc1cc(C)n(-c2nc(-c3cccc(Cl)c3)cs2)n1` | 5.012 | falling, partial curve |
| 4 | `c1ccc(-c2cc3c(ccc4nonc43)nn2)cc1` | 0.003981 | rising, full curve, poor fit |
| 5 | `COc1ccc(NC(=O)c2ccc(-c3ccc(-c4noc(C)n4)cc3C)cc2)cc1OCCN(C)C` | 15.85 | falling, partial curve |
| 6 | `Cc1onc(-c2ccccc2Cl)c1C(=O)Nc1ccc(CN2CCCC2)cc1` | 5.012 | rising, single point |
| 7 | `CC(=O)Nc1ccc(C2NC(=O)c3ccccc3O2)cc1` (centres undefined) | 6.31 | rising, partial curve |
| 8 | `COc1ccc(CCN2CCC(Nc3nc4ccccc4n3Cc3ccc(F)cc3)CC2)cc1` | 7.943 | falling, partial curve |
| 9 | `c1coc(-c2nc(-c3ccco3)c(-c3ccco3)nc2-c2ccco2)c1` | 10 | falling, partial curve, poor fit |
| 10 | `O=C(CS(=O)(=O)Cc1ccccc1)N1CCc2ccccc21` | 0.631 | falling, single point |
| 11 | `CCc1ccc(-c2nc(CN3CCC(C(=O)NCCN(CC)c4ccccc4)CC3)c(C)o2)cc1` | 2.512 | rising, partial curve |
| 12 | `CC1CCCO1` (centres undefined) | 12.59 | rising, partial curve |
| 13 | `CCCCOc1ccc(-c2nnc(-c3ccco3)o2)cc1` | 10 | falling, single point |
| 14 | `Fc1ccc(CNc2nc(-c3ccco3)cc(C(F)(F)F)n2)cc1` | 12.59 | falling, partial curve |
| 15 | `CC(C)(C)P(=O)(c1ccncc1)N1CCCC1` (centres undefined) | 31.62 | rising, single point |
| 16 | `CC(C)c1[nH]nc2c1C(Cc1ccccc1)C(C#N)=C(N)O2` (centres undefined) | 3.981 | falling, partial curve, poor fit |
| 17 | `CCOc1ccc(-c2[nH]ncc2Oc2cccc(OC)c2)c(O)c1` | 6.31 | falling, partial curve |
| 18 | `COc1ccccc1C(=O)N1CCN(S(=O)(=O)c2ccccc2)CC1` | 10 | rising, partial curve |
| 19 | `Cc1ccc(C(=O)O)cc1[N+](=O)[O-]` | 12.59 | rising, single point |
| 20 | `COC(=O)c1[nH]c2ccccc2c1NC(=O)CN1CCCCCC1` | 0.01585 | rising, full curve, poor fit |
| 21 | `Cc1cc2nc(-c3ccc(NC(=O)c4cccnc4)cc3)oc2cc1C` | 5.012 | rising, single point |
| 22 | `CCCN1/C(=C(/C#N)C2=NS(=O)(=O)c3ccccc32)N(C)c2ccccc21` | 1 | falling, partial curve |
| 23 | `COc1cc(NC(=O)c2nnn(Cc3ccc(SC)cc3)c2N)cc(OC)c1` | 5.012 | falling, full curve |
| 24 | `Cc1cccc(-c2nc(CSCC(=O)N3CCN(c4ccccn4)CC3)c(C)o2)c1` | 31.62 | falling, partial curve, poor fit |
| 25 | `CCOC(=O)CSc1nc2ccc(N3CCOCC3)cc2c(=O)n1Cc1ccc2c(c1)OCO2` | 1.585 | rising, partial curve, poor fit |
| 26 | `C[C@@H]1[C@H]2C=C[C@@H]1[C@@H](c1c3ccc(=O)c(O)c-3oc3c(O)c(O)ccc13)[C@@H]2C(=O)O` | 3.162 | falling, partial curve |
| 27 | `O=c1cc(CN2CCN(c3ccc(F)cc3)CC2)nc2sccn12` | 2.512 | rising, single point |
| 28 | `CC(C)(Cc1c[nH]c2ccc(Cl)cc12)NCCOc1ccccc1OCC1CC1` | 31.62 | falling, partial curve |
| 29 | `Cc1ccc(-c2cc(C(=O)NCc3ccc4c(c3)OCO4)[nH]n2)c(O)c1C` | 1.995 | falling, full curve, poor fit |
| 30 | `CCN(CC)c1cccc(OCC(=O)N(C)CCC#N)c1` | 15.85 | rising, partial curve |
| 31 | `C/C(=C\C(=O)c1ccc(C)cc1)Nc1cccc(O)c1` | 15.85 | falling, partial curve |
| 32 | `Cc1cc2c(c(=O)n1C1CC1)C(c1cccc(Cl)c1)C(C#N)=C(N)O2` (centres undefined) | 5.012 | rising, single point |
| 33 | `CCOC(=O)c1ccc(Oc2nc(NC(C)(C)C)nc(N(C)C)n2)cc1` | 19.95 | falling, partial curve |
| 34 | `O=C(Oc1ccc(-c2cn3c(n2)SCC3)cc1)c1ccccc1` | 0.07943 | falling, partial curve |
| 35 | `FC(F)(F)c1cccc(-c2ccc(-c3csnn3)o2)c1` | 15.85 | falling, partial curve |
| 36 | `CC(=O)Nc1nc2n(n1)C(c1ccc(F)cc1)C=C(c1ccccc1)N2` (centres undefined) | 0.5012 | falling, partial curve, poor fit |
| 37 | `O=C(Nc1cccnc1)c1c(F)c(F)c(F)c(F)c1F` | 7.943 | rising, partial curve |
| 38 | `COc1cccc(Cn2c(=O)c(-c3cc(F)cc(F)c3)nc3cnc(N4CCOCC4)nc32)c1` | 1.585 | rising, full curve |
| 39 | `COc1ccc(Cc2nc(-c3ccc(Br)o3)no2)cc1OC` | 10 | falling, partial curve |
| 40 | `ClC1=C(Cl)C2(Cl)C3C(Cl)C(Cl)CC3C1(Cl)C2(Cl)Cl` (centres undefined) | 15.85 | falling, partial curve |
| 41 | `CCCOC(=O)C1=C(C)NC2=C(C(=O)C(C(=O)OC)C(C)C2)C1c1ccc(N(CC)CC)cc1` (centres undefined) | 10 | rising, single point |
| 42 | `CCOC(=O)C(NC(C)=O)(N1CCc2ccccc2C1)C(F)(F)F` (centres undefined) | 12.59 | rising, single point |
| 43 | `COC(=O)[C@@]1(Cc2ccc(F)cc2)[C@H]2c3cc(C(=O)N(C)C)n(CCc4ccc(OC)c(Br)c4)c3C[C@H]2CN1C(=O)c1ccccc1` | 19.95 | falling, single point |
| 44 | `CC(=NCc1ccc2c(c1)OCO2)c1c(O)n(C)c(=O)n(C)c1=O` | 0.01995 | rising, full curve, poor fit |
| 45 | `CCn1nnnc1NCc1cccn1C` | 12.59 | rising, partial curve |
| 46 | `Cc1cc(C(=O)CN2C(=O)NC(c3ccccc3)(c3ccccc3)C2=O)c(C)n1Cc1ccco1` | 19.95 | falling, single point |
| 47 | `COc1ccccc1CNc1nc(-c2ccc(C(=O)N(C)C)cc2)nc2ccccc12` | 31.62 | falling, single point |
| 48 | `O=C(Nc1nc(-c2ccc(S(=O)(=O)N3CCCCCC3)cc2)cs1)c1cccs1` | 25.12 | falling, single point |
| 49 | `Cn1c(C(=O)NCCN2CCc3ccccc3C2)cc2c(=O)n(C)c3ccccc3c21` | 10 | falling, partial curve |
| 50 | `COc1cccc(-c2cc(C(=O)Nc3c(C)nn(Cc4ccccc4C)c3C)no2)c1` | 19.95 | falling, single point |
| 51 | `CCCCOC(=O)Nc1ccc(S(=O)(=O)Nc2cc(C)nc(C)n2)cc1` | 12.59 | rising, single point |
| 52 | `O=C(CN1C(=O)c2cccc3cccc1c23)N1CCN(c2cccc(Cl)c2)CC1` | 12.59 | rising, single point |